# According to publication PMC3325482:
# These are yes or no findings as the source states them, for the method shown. Some entries that bind do so weakly or less than the wild type.
# T1: rat Cd200 ectodomain (rat) (UniProt P04218)
# T1 sequence (chain, biotin on the lysine of the Bio peptide (bait form, enzymatic by BirA)): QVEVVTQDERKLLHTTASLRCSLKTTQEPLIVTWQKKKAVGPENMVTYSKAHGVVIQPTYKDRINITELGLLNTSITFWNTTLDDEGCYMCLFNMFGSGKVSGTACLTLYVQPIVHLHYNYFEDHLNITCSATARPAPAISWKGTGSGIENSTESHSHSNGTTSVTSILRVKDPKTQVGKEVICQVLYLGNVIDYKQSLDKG
# T2: rat Cd200R ectodomain (rat) (UniProt Q9ES58)
# T2 sequence (chain, biotin on the lysine of the Bio peptide (bait form, enzymatic by BirA)): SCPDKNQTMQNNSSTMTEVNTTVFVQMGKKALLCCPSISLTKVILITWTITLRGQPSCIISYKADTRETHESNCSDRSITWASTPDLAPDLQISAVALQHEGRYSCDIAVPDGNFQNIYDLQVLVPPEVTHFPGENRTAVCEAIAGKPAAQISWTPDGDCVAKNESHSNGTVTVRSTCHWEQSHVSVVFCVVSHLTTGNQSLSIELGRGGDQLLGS
# T3: zebrafish JamC1 ectodomain (zebrafish) (UniProt A3KPA0)
# T3 sequence (chain, biotin on the lysine of the Bio peptide (bait form, enzymatic by BirA)): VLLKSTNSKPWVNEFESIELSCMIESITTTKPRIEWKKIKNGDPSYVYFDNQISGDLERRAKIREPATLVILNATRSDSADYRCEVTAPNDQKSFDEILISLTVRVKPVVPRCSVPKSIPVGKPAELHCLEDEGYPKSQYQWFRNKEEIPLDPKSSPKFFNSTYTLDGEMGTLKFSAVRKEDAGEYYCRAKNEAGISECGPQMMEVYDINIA
# T4: zebrafish JamB1 ectodomain (zebrafish)
# T4 sequence (chain, biotin on the lysine of the Bio peptide (bait form, enzymatic by BirA)): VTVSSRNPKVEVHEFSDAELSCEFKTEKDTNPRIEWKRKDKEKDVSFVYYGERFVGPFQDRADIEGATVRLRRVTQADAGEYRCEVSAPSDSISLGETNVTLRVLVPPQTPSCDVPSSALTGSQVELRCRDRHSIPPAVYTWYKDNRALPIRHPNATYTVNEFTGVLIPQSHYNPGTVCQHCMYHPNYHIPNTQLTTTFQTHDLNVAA
# B1: rat Cd200R ectodomain (domain or fragment, UniProt Q9ES58 24-239)
# chain: T2 sequence (chain, biotin on the lysine of the Bio peptide (bait form, enzymatic by BirA))
# modifications: biotin on the lysine of the Bio peptide (bait form, enzymatic by BirA)
# B2: rat Cd200 ectodomain (domain or fragment, UniProt P04218 31-232)
# chain: T1 sequence (chain, biotin on the lysine of the Bio peptide (bait form, enzymatic by BirA))
# modifications: biotin on the lysine of the Bio peptide (bait form, enzymatic by BirA)
# B3: zebrafish JamB1 ectodomain (domain or fragment, UniProt A0A0R4IGV4 19-226)
# chain: T4 sequence (chain, biotin on the lysine of the Bio peptide (bait form, enzymatic by BirA))
# modifications: biotin on the lysine of the Bio peptide (bait form, enzymatic by BirA)
# B4: zebrafish JamC1 ectodomain (domain or fragment, UniProt A3KPA0 24-235)
# chain: T3 sequence (chain, biotin on the lysine of the Bio peptide (bait form, enzymatic by BirA))
# modifications: biotin on the lysine of the Bio peptide (bait form, enzymatic by BirA)
# Legend:
# [1] = biological target: T1, rat Cd200 ectodomain (rat); assay: peptide or protein array; microarray AVEXIS: serial dilutions of purified biotinylated baits on streptavidin-coated slides, probed with 196 U of unpurified pentameric prey, 1 h at 22 °C, washes in PBS/Tween, anti-Flag HRP and TSA Alexa 555 detection; only the target purified
# [2] = biological target: T2, rat Cd200R ectodomain (rat); assay: as above
# [3] = biological target: T3, zebrafish JamC1 ectodomain (zebrafish); assay: peptide or protein array; microarray AVEXIS: all six zebrafish Jam baits (purified, biotinylated) immobilised as a dilution series on streptavidin-coated slides, probed with the six corresponding pentameric preys, 1 h at 22 °C, anti-Flag HRP and TSA Alexa 555 detection; only the target purified
# [4] = biological target: T4, zebrafish JamB1 ectodomain (zebrafish); assay: as above
binder,measurement,setting,value
B1,binding,[1],binds
B2,binding,[2],binds
B3,binding,[3],binds
B4,binding,[4],binds
